The record followed here is publication PMC6001135.

Sequences of proteins named here, by UniProt entry; tags and fusion partners are left off.
UniProt P63216: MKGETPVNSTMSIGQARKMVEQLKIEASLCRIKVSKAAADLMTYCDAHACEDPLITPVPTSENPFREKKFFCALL
UniProt P62874: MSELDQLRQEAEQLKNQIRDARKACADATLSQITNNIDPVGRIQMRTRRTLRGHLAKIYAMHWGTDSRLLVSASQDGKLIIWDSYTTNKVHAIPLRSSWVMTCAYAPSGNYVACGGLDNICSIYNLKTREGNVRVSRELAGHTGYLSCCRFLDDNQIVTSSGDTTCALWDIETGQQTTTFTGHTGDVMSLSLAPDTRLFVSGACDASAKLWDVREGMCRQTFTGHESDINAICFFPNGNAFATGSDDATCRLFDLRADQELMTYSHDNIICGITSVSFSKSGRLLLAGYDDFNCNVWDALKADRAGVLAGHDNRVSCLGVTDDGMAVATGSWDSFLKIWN

The target in the test is G-protein γ-subunit Gγ3 (mouse (endogenous in rod outer segments)) (UniProt P63216). Kind of test: co-IP; anti-Gγ2 (mouse) or anti-Gγ3 (rabbit) antibody on Protein G or Protein A Mag Sepharose beads, incubated with 12.5 μg rod outer segment lysate of Gγ1−/− or WT mice overnight at 4°C; 0.1% n-dodecyl-β-maltoside in PBS with protease inhibitors; Gβ1 detected by Western blotting.

Results are given in words; binding and its absence hold for the method and conditions named. Binding seen in cells or lysates may run through a third protein. Some binding calls cover weakened binding; strength is not graded here.

Turning to “Transducin β-subunit Gβ1 (from UniProt P62874 1-340)”, the binding entry was “binds”.
